Screening data

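Luminescence from an EWS-FLI1 target-promoter (NR0B1) reporter, set against a CMV-promoter reporter, two days after silencing single genes in TC32 Ewing sarcoma cells.
Each siRNA was applied at 20 nM.
A z-score of the log NR0B1-over-CMV signal, less the median of siRNAs with the same seed; more negative means a stronger specific loss of the NR0B1 reporter.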

This is part of the screen; most of the strongest results are not listed here.
Sequences are the guide (antisense) strand, without overhang.

| Sequence | gene | seed-corrected z-score |
|---|---|---|
| `UUUGAUAACAUCCGCAGGU` | SLC25A38P1 | -0.9765 |
| `ACUCCAACAAUUAUCAUUC` | SLC18A2 | 0.3012 |
| `UCUUGAUUUGAUAUGCUGG` | CEP41 | 0.05923 |
| `UAUGAUACCACCCGAUUGC` | COPS5 | -1.081 |
| `UUAUUAAUCUGUCUCAUGG` | TOR1AIP2 | 0.09098 |
| `UAGCUAAUCGUUCCCGUAC` | GOLPH3 | 0.4492 |
| `UUCUUUUGCAGUAGGGCCG` | TMEM55B | -0.9359 |
| `UAUUCAUGAAAAUCUACGG` | PCDHGA8 | 0.6417 |
| `UAUUAGCUCUCUUACGUUG` | LARP1B | 0.03389 |
| `UUUUCUGUUCAAAUCCUCC` | DNAJC15 | 1.445 |
| `UAAACUUCUUGCAAGGAGC` | PSMA5 | 0.4364 |
| `UCUGGUAAGAUUGAUCUCU` | SYNJ2BP | -0.2432 |
| `UUCCAUAUAAAAACGUACC` | HACD1 | 0.7933 |
| `UCCAUAAUUAUCACCGUCG` | SRPX | 1.331 |
| `UGUAGUAAAACCCUUUUUC` | TNFSF10 | 0.9031 |
| `AAAGUUCUUGUAGCAAUCC` | FHL1 | -0.1162 |
| `AAAGAUACUGGCACCUUGG` | ZFP92 | -0.98 |
| `UUCGUCACUGAUAACCUCC` | TUBB4A | 0.2473 |
| `AAUGUUCUUGUGGUUCUCC` | ZNF423 | -0.3493 |
| `AUGGUGAUCAAAGUCGCUC` | PANK2 | 0.1076 |
| `UGUACAAUCUCUUUCGUCU` | WDR5 | 1.856 |
| `UAUCCUAAGGCAUCGCUCC` | NSUN2 | -0.04343 |
| `UAAGGUUAAUCUCAAAUCG` | TBC1D4 | 0.8033 |
| `UUUAUGAUCAAGAUCCACG` | TIGIT | -0.08895 |
| `AAUGCGUUGAGAAAGUUCC` | NDUFAF7 | -0.4389 |
| `UUUGUUGCAGCCUCGACAG` | RNF166 | 0.1264 |
| `UAUAGCUGUACAUCAAUCG` | FBXO4 | -1.888 |
| `UCGGCUUUUCUCAAAGUCC` | HOOK2 | 1.143 |
| `UUCAAACCCAAAUUCGUCU` | NDUFAB1 | -0.5804 |
| `UAUCUUGAGACACGGGUGU` | KLK13 | -0.06809 |
| `UAUCGAACAGACCUACGCC` | UBR2 | -0.4953 |
| `UAUAGAGCUGUGAACUCCG` | BCL2L2 | -0.341 |
| `UAGAUGCCCACGCAUGCAC` | GS1-24F4.2 | -0.1844 |
| `AGAUCAUCAAGUUACAUGC` | MANSC1 | -0.3796 |
| `UUAGUAGCAAUACUUCCUU` | SYNPR | -0.5987 |
| `AAACGGGAGCUGUAGAACC` | SYS1 | 0.2458 |
| `UGGUGUUCAAACUUCAAUG` | GTF3C4 | 0.2132 |
| `UAUUGUAGUGGUACCAUCC` | ERCC6 | 0.5496 |
| `UGGUUGACAAACUCUGACC` | GTF2IRD1P1 | 0.2767 |
| `UUAAAUCCCAACUGAGCUC` | PDZD11 | 1.438 |
| `AUUAGUUGAAGAUACUCUG` | TNFSF11 | 0.5039 |
| `AUUGUUCCAACUCCUUAUG` | GCC2 | 2.855 |
| `UCCUUGUGCACCGUGAUGC` | RRS1 | 0.2017 |
| `UGUGGUUCCACAGUGGGUG` | ZP1 | -1.325 |
| `UUUAACUUUAGACCUCUGG` | FAM91A3P | 0.6775 |
| `UGUUGGACAAACAAGGGCA` | USP18 | 0.03581 |
| `UAUAAAUGGACAUUUACGG` | CDKN2A | 0.3023 |

The results are deposited in PubChem (AID1159506; NCATS, 2015).